Reference: article doi:10.1101/2020.10.28.358580
Results are given in words; binding and its absence hold for the method and conditions named. In cells and extracts the contact can be indirect. A yes stands for co-enrichment or nearness to the bait. Other partners may have been found.

Sequences of proteins named here, by UniProt entry; tags and fusion partners are left off. A change or cut given only in a name is not applied to a line headed by its entry.
UniProt P13569: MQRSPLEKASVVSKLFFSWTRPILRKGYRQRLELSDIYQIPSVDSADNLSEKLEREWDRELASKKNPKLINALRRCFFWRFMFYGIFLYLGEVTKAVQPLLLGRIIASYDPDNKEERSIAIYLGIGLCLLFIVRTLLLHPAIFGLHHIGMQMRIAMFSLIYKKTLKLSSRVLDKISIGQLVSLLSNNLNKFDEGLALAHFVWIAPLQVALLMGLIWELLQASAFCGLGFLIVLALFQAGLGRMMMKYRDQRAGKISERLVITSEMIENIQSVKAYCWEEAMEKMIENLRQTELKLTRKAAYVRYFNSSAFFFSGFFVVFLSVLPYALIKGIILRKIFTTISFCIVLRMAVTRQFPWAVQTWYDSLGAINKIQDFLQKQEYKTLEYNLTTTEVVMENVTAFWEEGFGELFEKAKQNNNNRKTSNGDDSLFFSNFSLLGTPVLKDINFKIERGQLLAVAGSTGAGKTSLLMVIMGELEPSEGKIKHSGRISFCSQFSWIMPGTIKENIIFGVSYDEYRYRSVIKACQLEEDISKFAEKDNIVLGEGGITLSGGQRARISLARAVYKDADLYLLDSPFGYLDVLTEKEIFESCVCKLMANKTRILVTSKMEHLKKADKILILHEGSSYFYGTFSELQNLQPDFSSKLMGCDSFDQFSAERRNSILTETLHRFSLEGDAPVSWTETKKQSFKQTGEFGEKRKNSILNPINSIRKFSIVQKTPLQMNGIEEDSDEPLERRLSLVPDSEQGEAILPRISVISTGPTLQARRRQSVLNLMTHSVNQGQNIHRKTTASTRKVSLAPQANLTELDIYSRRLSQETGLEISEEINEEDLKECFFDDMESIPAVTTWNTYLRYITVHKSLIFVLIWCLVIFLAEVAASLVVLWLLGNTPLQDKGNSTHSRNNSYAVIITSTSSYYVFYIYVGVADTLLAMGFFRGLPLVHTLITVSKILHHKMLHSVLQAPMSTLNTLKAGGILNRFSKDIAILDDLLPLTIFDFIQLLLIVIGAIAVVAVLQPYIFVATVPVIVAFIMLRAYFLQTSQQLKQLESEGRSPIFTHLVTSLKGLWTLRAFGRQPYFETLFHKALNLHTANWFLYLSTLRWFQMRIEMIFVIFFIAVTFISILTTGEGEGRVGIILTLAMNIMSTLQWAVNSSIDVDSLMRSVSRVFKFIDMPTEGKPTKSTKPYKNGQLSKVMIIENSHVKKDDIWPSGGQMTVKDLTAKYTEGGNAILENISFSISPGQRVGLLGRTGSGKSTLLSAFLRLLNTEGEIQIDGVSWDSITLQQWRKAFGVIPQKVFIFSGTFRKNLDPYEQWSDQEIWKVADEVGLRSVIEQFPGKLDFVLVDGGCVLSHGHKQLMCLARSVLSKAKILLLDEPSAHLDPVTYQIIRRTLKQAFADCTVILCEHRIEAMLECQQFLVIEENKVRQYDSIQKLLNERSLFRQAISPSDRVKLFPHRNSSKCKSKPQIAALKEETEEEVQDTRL

Target: T1, JB12-APEX (UniProt Q9NXW2)
T1 sequence: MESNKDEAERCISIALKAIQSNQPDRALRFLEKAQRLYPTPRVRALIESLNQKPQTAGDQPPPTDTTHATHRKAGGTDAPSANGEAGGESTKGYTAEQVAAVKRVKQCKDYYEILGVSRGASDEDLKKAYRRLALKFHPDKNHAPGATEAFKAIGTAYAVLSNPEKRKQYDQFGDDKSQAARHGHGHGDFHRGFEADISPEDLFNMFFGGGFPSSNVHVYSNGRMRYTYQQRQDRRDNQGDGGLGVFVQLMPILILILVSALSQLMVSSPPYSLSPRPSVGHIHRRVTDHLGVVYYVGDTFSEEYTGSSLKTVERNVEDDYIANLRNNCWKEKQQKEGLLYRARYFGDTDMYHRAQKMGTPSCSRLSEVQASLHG
Assay: proximity labelling

binding: binds
Substance: N1303K-CFTR (from UniProt P13569 1-1480)
